Reference: PubChem BioAssay AID2685 (National Center for Advancing Translational Sciences (NCATS), 2010)
Where “and” joins values, the source holds several entries; their conditions need not be identical. Equal values may be shown once. The list shows a part of the results. Shown are side measurements of this screen, not its main read-out; they come without a call. The list favours compounds with an active or inconclusive main result. The note in brackets gives the kind of curve behind each potency; many fits are weak.

Test: qHTS Assay for Lipid Storage Modulators in Drosophila S3 Cells;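 for cell number change: cells counted by Cell Tracker Red CMTPX staining in the red channel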
Settings: BODIPY lipid droplet fluorescence, 18-24 h; for cell number change: measured here: cell count max response, cells fed with added oleic acid
Method in brief: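 Drosophila S3 cells loaded with oleic acid (400 uM, as added) and compounds at several concentrations; lipid droplets imaged by 488-nm laser-scanning cytometry, 500–530 nm intensity and object ratio to cell channel. Percent activity normalized to 20 uM Triacsin C.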

[1] = measured here: cell number channel AC50, cells fed with added oleic acid
[2] = measured here: lipid fluorescence (Fed channel) AC50, cells fed with added oleic acid

| Compound | cell number change | AC50 [1] | AC50 [2] |
| --- | --- | --- | --- |
| CCCCOC(=O)c1ccc(NC(=O)CSc2nncn2C)cc1 | -15.3% |  |  |
| CC(C)(C)c1nc(SCC(=O)Nc2ccc(N3CCOCC3)cc2)c2ccccc2n1 | -63.6% | 2.59 µM [falling, partial curve, poor fit] | 29.1 µM [falling, single point] |
| COC(=O)c1cc(=O)c2c([N+](=O)[O-])ccc(OC)c2o1 | 12.9% |  | 1.84 µM [rising, partial curve, poor fit] |
| CCOc1ccc(NC(=O)c2cccnc2Cl)c([N+](=O)[O-])c1 |  |  | 29.1 µM [rising, single point] |
| NC(=O)N1OCC2COc3ccc4ccccc4c3C21 (configuration not stated) | 3.93% |  | 6.51 µM [falling, single point] |
| CC(C)(C)C(=O)CSc1nc2ccccc2o1 | 5.42% |  |  |
| Cc1ccc(CNC(=O)c2ccc(OCC3CCCO3)cc2)cc1 (configuration not stated) |  | 2.91 µM [rising, single point] |  |
| O=C(CCCNC(=O)c1ccc(Cl)cc1)Nc1ncccc1O | -7.8% |  | 16.4 µM [rising, single point] |
| Cc1ccc(C(=O)COC(=O)CCC(=O)Nc2ccccc2Cl)cc1[N+](=O)[O-] | -3.36% | 0.517 µM [falling, partial curve, poor fit] | 0.651 µM [falling, partial curve] |
| NC1=NC(c2ccc(Br)cc2)n2c(nc3ccccc32)N1 (configuration not stated) |  | 0.13 µM [falling, full curve, poor fit] |  |
| COCCn1c(Cc2cccn2C)nnc1SCC(=O)Nc1nccs1 | -13% |  | 6.51 µM [rising, single point] |
| C=CCOC(=O)Nc1c(C(=O)OC)[nH]c2ccc(Cl)cc12 | 8.62% | 0.259 µM [rising, full curve, poor fit] |  |
| Cc1[nH]c(=O)[nH]c(=O)c1CSc1nnc(CCCCCNC(=O)OC(C)(C)C)o1 | 5.37% |  | 7.31 µM [falling, partial curve] |
| Cc1ccc2occ(/C=N/NC(=O)c3ccc(O)cc3)c(=O)c2c1 |  |  | 29.1 µM [falling, single point] |
| COc1ccc(NC(=O)C2CCC(C(C)(C)C)CC2)cc1S(=O)(=O)N1CCOCC1 (configuration not stated) | -10.8% |  | 2.06 µM [rising, partial curve, poor fit] |
| CCn1c(SCC(=O)Nc2nc(C)cs2)nnc1-c1cccnc1 |  | 0.231 µM [rising, full curve, poor fit] |  |
| COC(CNC(=O)C1CCN(C(=O)c2cc3oc(C)cc3n2Cc2c(F)cccc2Cl)CC1)OC | -14.1% | 4.61 µM [falling, single point] |  |
| O=C1CC(c2ccco2)CC2=C1C=Nc1ccccc1N2 (configuration not stated) | -11.9% |  |  |
| c1ccc(N2CCN(c3nc(-c4cccs4)nc4ccccc34)CC2)cc1 | 60.3% | 16.4 µM [rising, single point] | 2.31 µM [falling, partial curve, poor fit] |
| CS(=O)(=O)N(CC(=O)N1CCN(c2ccc(F)cc2)CC1)C1CCCCC1 |  | 0.291 µM [rising, full curve, poor fit] | 0.461 µM [rising, partial curve, poor fit] |

| Compound | cell number change | AC50 [1] | AC50 [2] |
| --- | --- | --- | --- |
| COc1ccc(NC(=O)c2ccc(-c3ccccc3Cl)o2)cc1 | 0.813% |  | 10.3 µM [rising, partial curve] |
| O=C(COC(=O)c1ccccc1)c1ccc2c(c1)OCCO2 | -50% | 25.9 µM [falling, single point] |  |
| CCC(=O)Nc1c2c(nn1-c1ccc(C)cc1C)CSC2 | -32.4% | 1.3 µM [falling, full curve, poor fit] | 1.84 µM [falling, partial curve] |
| CC(C)N(C(=O)COC(=O)CNS(=O)(=O)c1ccccc1F)c1ccccc1 | -41.7% |  |  |
| COc1ccc(-c2nnn(CC(=O)NC3CCCc4ccccc43)n2)cc1OC (configuration not stated) | -12.9% |  |  |
| COc1ccc(-c2noc(N3CCC(C(=O)Nc4ccccc4F)CC3)n2)cc1 | 4.61% |  | 6.51 µM [rising, partial curve, poor fit] |
| CC(=O)OC[C@H]1O[C@@H](O/N=C/C[C@@H]2C=C[C@H](OC(C)=O)[C@@H](COC(C)=O)O2)[C@H](OC(C)=O)[C@@H](OC(C)=O)[C@@H]1OC(C)=O | 3.68% |  | 29.1 µM [rising, single point] |
| COc1cccc(C(=O)Nc2cccc(C(C)=O)c2)c1 | -4.55% |  | 2.06 µM [rising, partial curve] |
| CSc1nnc(CNS(=O)(=O)c2ccc(F)cc2)n1C | 7.14% |  |  |
| CCC(=O)N1CCc2cc(S(=O)(=O)NCCCN(CC)Cc3ccccc3)ccc21 | 20.8% |  |  |
| Cc1nn2c(N)csc2nc1=O | -15.6% |  | 5.8 µM [falling, full curve, poor fit] |
| Cc1cc(C)c(OCC(O)CN2CCN(C(=O)c3ccccc3)CC2)c(C)c1 (configuration not stated) | 1.93% |  | 29.1 µM [rising, single point] |
| COc1cc(NC(=O)c2cc(-c3cccc(O)c3)on2)cc(OC)c1OC | 27.7% |  | 7.31 µM [rising, single point] |
| O=C(COC(=O)c1cc(=O)[nH]c2ccccc12)NC1CCCC1 | -50.6% |  | 29.1 µM [falling, single point] |
| CCCCNC(=O)CSc1nnc(-c2cccc(S(=O)(=O)N3CCOCC3)c2)o1 | -35.6% | 25.9 µM [falling, single point] | 6.51 µM [falling, single point] |
| Cc1ccc(-c2noc(CCCC(=O)NCC3CCCO3)n2)cc1 (configuration not stated) | -4.76% | 0.116 µM [rising, full curve, poor fit] | 29.1 µM [falling, single point] |
| Cc1ccc(S(=O)(=O)N2CCN(C(=O)CN3C(=O)c4ccccc4C3=O)CC2)c(C)c1 | 21.6% |  | 0.461 µM [rising, full curve, poor fit] |
| CC(=O)N1c2ccc(S(=O)(=O)N3CCC(C(=O)N4CCCC(C)C4)CC3)cc2CC1C (configuration not stated) | -19.1% |  | 20.6 µM [falling, single point] |
| Cn1nc(CSc2ccccc2)c(C=O)c1Cl | 22.1% |  | 0.651 µM [falling, single point] |
| O=C(NCc1ccccc1)c1ccc(N2CCC3(CC2)CC(c2ccc(Cl)cc2)=NO3)c([N+](=O)[O-])c1 | 16.5% |  | 0.13 µM [falling, full curve, poor fit] |

Reformatted with bars between the fields: entries from further up
Compound | cell number change | AC50 [1] | AC50 [2]
COc1ccc(NC(=O)c2ccc(-c3ccccc3Cl)o2)cc1 | 0.813% |  | 10.3 µM [rising, partial curve]
O=C(COC(=O)c1ccccc1)c1ccc2c(c1)OCCO2 | -50% | 25.9 µM [falling, single point] | 
CCC(=O)Nc1c2c(nn1-c1ccc(C)cc1C)CSC2 | -32.4% | 1.3 µM [falling, full curve, poor fit] | 1.84 µM [falling, partial curve]
CC(C)N(C(=O)COC(=O)CNS(=O)(=O)c1ccccc1F)c1ccccc1 | -41.7% |  | 
COc1ccc(-c2noc(N3CCC(C(=O)Nc4ccccc4F)CC3)n2)cc1 | 4.61% |  | 6.51 µM [rising, partial curve, poor fit]
CC(=O)OC[C@H]1O[C@@H](O/N=C/C[C@@H]2C=C[C@H](OC(C)=O)[C@@H](COC(C)=O)O2)[C@H](OC(C)=O)[C@@H](OC(C)=O)[C@@H]1OC(C)=O | 3.68% |  | 29.1 µM [rising, single point]
COc1cccc(C(=O)Nc2cccc(C(C)=O)c2)c1 | -4.55% |  | 2.06 µM [rising, partial curve]
CCC(=O)N1CCc2cc(S(=O)(=O)NCCCN(CC)Cc3ccccc3)ccc21 | 20.8% |  | 
Cc1nn2c(N)csc2nc1=O | -15.6% |  | 5.8 µM [falling, full curve, poor fit]
Cc1cc(C)c(OCC(O)CN2CCN(C(=O)c3ccccc3)CC2)c(C)c1 (configuration not stated) | 1.93% |  | 29.1 µM [rising, single point]
O=C(COC(=O)c1cc(=O)[nH]c2ccccc12)NC1CCCC1 | -50.6% |  | 29.1 µM [falling, single point]
CCCCNC(=O)CSc1nnc(-c2cccc(S(=O)(=O)N3CCOCC3)c2)o1 | -35.6% | 25.9 µM [falling, single point] | 6.51 µM [falling, single point]
Cc1ccc(-c2noc(CCCC(=O)NCC3CCCO3)n2)cc1 (configuration not stated) | -4.76% | 0.116 µM [rising, full curve, poor fit] | 29.1 µM [falling, single point]
Cc1ccc(S(=O)(=O)N2CCN(C(=O)CN3C(=O)c4ccccc4C3=O)CC2)c(C)c1 | 21.6% |  | 0.461 µM [rising, full curve, poor fit]
CC(=O)N1c2ccc(S(=O)(=O)N3CCC(C(=O)N4CCCC(C)C4)CC3)cc2CC1C (configuration not stated) | -19.1% |  | 20.6 µM [falling, single point]
Cn1nc(CSc2ccccc2)c(C=O)c1Cl | 22.1% |  | 0.651 µM [falling, single point]
O=C(NCc1ccccc1)c1ccc(N2CCC3(CC2)CC(c2ccc(Cl)cc2)=NO3)c([N+](=O)[O-])c1 | 16.5% |  | 0.13 µM [falling, full curve, poor fit]

Later entries.

| Compound | cell number change | AC50 [1] | AC50 [2] |
| --- | --- | --- | --- |
| CCN(CC)CCCN1C(=O)C(=O)/C(=C(/O)c2ccc3c(c2)CC(C)O3)C1c1cccnc1 (configuration not stated) | -10.4% |  | 16.4 µM [falling, single point] |
| O=C1COc2ccc(S(=O)(=O)NCc3ccc(Cl)cc3)cc2N1 | 11.8% |  | 29.1 µM [rising, single point] |
| Cc1nc(SCC(=O)NC2(C#N)CCCC2)n(CC(C)C)c1C | -2% |  |  |
| NC(=O)C1CN(C(=O)c2nn(Cc3ccccc3)c(=O)c3ccccc23)c2ccccc2O1 (configuration not stated) | 228% | 10.3 µM [rising, partial curve] |  |
| c1ccc(CNc2ncnc3ccccc23)cc1 | -5.81% and -39.6% | 2.59 µM [falling, partial curve] | 18.4 µM [falling, single point] and 8.2 µM [falling, partial curve] |
| COc1ccc(/C=C2\S/C(=N/S(=O)(=O)c3cccs3)NC2=O)cc1 | 15% |  |  |
| COc1ccc(CCNC(=O)CSc2ccc3nnc(CCNC(=O)c4ccccc4)n3n2)cc1OC | 23.2% |  | 29.1 µM [rising, single point] |
| CC(=O)Nc1nc(-c2ccc(Br)s2)cs1 | 34.3% | 5.17 µM [rising, full curve, poor fit] |  |
| CC(C)c1csc(CN2CCC(CCC(=O)NCC3CCCO3)CC2)n1 (configuration not stated) | 24.3% |  |  |
| CCn1nc(C(=O)NNC(=O)COc2ccc(OC)cc2)c2ccccc2c1=O | 19% |  |  |
| CC(C)OCCCN1CN(S(=O)(=O)c2ccccc2)c2nc3ccccc3nc21 | 36.8% | 9.2 µM [rising, partial curve] | 0.651 µM [rising, full curve] |
| N=c1n(Cc2ccccc2)c2ccccc2n1CC(O)COc1ccccc1 (configuration not stated) | -39.4% | 14.6 µM [falling, partial curve] | 32.6 µM [falling, single point] |
| O=C(Nc1cccc(Cl)c1)N(Cc1nc2ccccc2c(=O)[nH]1)Cc1cccs1 | 7.39% |  | 6.51 µM [rising, partial curve, poor fit] |
| COc1cccc(NC(=O)CSc2nnc(-c3cc(C)[nH]n3)n2N)c1 | 7.78% |  |  |
| Nc1ccc(-c2nc3ccc([N+](=O)[O-])cc3[nH]2)cc1 | -17.5% |  | 29.1 µM [rising, single point] |
| Nc1c(C(=O)NCC2CCCO2)sc(=S)n1-c1ccccc1 (configuration not stated) | 19.2% |  | 0.058 µM [falling, full curve, poor fit] |
| COc1ccc(NC(=O)CN2C(=O)NC3(CCCC3)C2=O)cc1OC | 15.9% |  | 29.1 µM [falling, single point] |
| O=C1NC[C@@H](Cc2ccc(O)cc2)N(CCc2cccc3ccccc23)C1=O | 0.485% |  |  |
| O=C(COc1ccccc1Br)N1CCN(c2ccccc2)CC1 | 155% | 4.61 µM [rising, partial curve] | 1.64 µM [rising, partial curve] |
| CCCn1c(SCC(=O)N2CCCCC2)nc2c1c(=O)n(C)c(=O)n2C | 6.58% |  | 0.112 µM [rising, full curve, poor fit] |
